# Data: the supplement of paper PMC5949888
# Most values lie at the floor of the assay. Slopes are relative: functional sequences can read slightly below zero.
# Test system: Saccharomyces cerevisiae PS128 hsf1 delta, HSF1(1-493) fusion
# Test: growth estimate (transactivation domain function in HSF1 fusion, heat-shock survival) (a.u. (slope of normalised read count over time)); higher = stronger growth at 37°C, i.e. more transactivation activity
# Details: library: random library
# Experimental: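 Random 60-nt DNA library encoding peptides of up to 20 aa, fused to the C-terminus of yeast HSF1 residues 1-493 (C-terminal TAD deleted) and expressed from the native HSF1 promoter on a CEN plasmid in hsf1-deleted S. cerevisiae PS128. Cells were selected at 37°C on -trp 5-FOA plates for 0, 2, 4, 6 and 8 days and amplicons were sequenced. Growth estimate is the slope of a robust linear fit of total-sum-normalised read counts (normalised to the first time point) over time, using at least 2 replicates. Sequences are classed functional (TAD activity) above a threshold of -0.13, set from stop-codon control sequences.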
row,Substance,growth estimate
1,SCHEKGQYSRLVTSGPSWTG,< -0.25
2,SSIDLVGPGPWWEPNLGTGN,< -0.25
3,WRATVTEEEHQPCGDNRS,< -0.25
4,ESFKRQETDLIVILSERAIA,< -0.25
5,ECVRPHRGVAYTNQLFLALR,< -0.25
6,GGSVGKPKNQER,< -0.25
7,LSGGLFFNEERSRELYHLGK,< -0.25
8,GDLADVYVGHSLRTGSRVHY,< -0.25
9,GSDLTNFFYVKPSMMPR,< -0.25
10,RPD,< -0.25
11,LGPYYECKSRCQTASHLARL,< -0.25
12,ELIPSYRTGQF,< -0.25
13,GRRAISRTLDTTRVVGFLHL,< -0.25
14,QTAKSPLRRTESPWAISCRG,< -0.25
15,RSRDSCC,< -0.25
16,GRTIHIESRQDLRWRLGCAL,< -0.25
17,VVAPWCGDARDYRGFISSDI,< -0.25
18,PFAMGFTTTGLADCAVGPPT,< -0.25
19,SEF,< -0.25
20,SIRTS,< -0.25
21,GWGLDKTQGC,< -0.25
22,GHVRDT,< -0.25
23,VYYDMPRTVSC,< -0.25
24,LGMRWPGSYLVYQFRCTTPP,< -0.25
25,YRGTKVVSRSITRR,< -0.25
26,GLRLLTRYAPHLHSRLG,< -0.25

row,Substance,growth estimate
1,CSSSERIEAG,< -0.25
2,ISKGK,< -0.25
3,RVRDLRLLGD,< -0.25
4,LVSCVRVGCGSG,< -0.25
5,VPSWWHRRVAIRA,< -0.25
6,RFPQRMLWRVRPLPGTVTLA,< -0.25
7,RVLICATASVSCSAMINLLL,< -0.25
8,FVVRNLIRHSSLPGIERTGR,-0.25
9,PPTVLTGILMKLVRVRKHPM,< -0.25
10,EGILRDN,< -0.25
11,RPGVSV,-0.151
12,ACIVITGPS,< -0.25
13,RLHWFYGALLMSPALLPGPR,< -0.25
14,PLP,< -0.25
15,GNREDPSDGVM,< -0.25
16,VDLFGAVGSFSVELK,< -0.25
17,PKRTSHLRNAWQSPDVPI,< -0.25
18,RCISKATKP,< -0.25
19,DVSETPLVSTQ,-0.245
20,DVGCDASPNRAHVRLA,< -0.25
21,LTCWLAVRKFLTGRGIFYRA,< -0.25
22,PGNRKGVSRVRHV,< -0.25
23,RGSFSMPMRGPD,< -0.25
24,CYIVGYGVKGGDLVCHALKS,< -0.25
25,GITAVSSRRCLSCGAFCPGR,< -0.25
26,LPPYKK,< -0.25

# Four entries drawn at random from those above:
row,Substance,growth estimate
12,ACIVITGPS,< -0.25
26,GLRLLTRYAPHLHSRLG,< -0.25
11,RPGVSV,-0.151
16,VDLFGAVGSFSVELK,< -0.25

# Carrying on:

row,Substance,growth estimate
1,LILTME,< -0.25
2,PDRTGLRQESDLVCPSLPKA,< -0.25
3,YTE,< -0.25
4,EFEDGSEFQFIRRRRSKGSG,< -0.25
5,SELRYV,< -0.25
6,QLVRNQTGGTRNNSTDPGKR,< -0.25
7,ELMTIPSAHFGVSERAPIRV,< -0.25
8,MTRHSNLNELSDTLTVPISF,-0.231
9,FCGAQLTSPLGKREDGFSTF,< -0.25
10,NYGEMKGQRSGPALAGGAAT,< -0.25
11,VPA,< -0.25
12,GAISTLSRRVRINLAKCTYE,< -0.25
13,TVAMYAD,< -0.25
14,IPDT,< -0.25
15,RGTHRLSKHGNVKPLRAGCI,-0.158
16,SVC,< -0.25
17,VSPVAVPLRHR,-0.176
18,REPKMGF,< -0.25
19,TGSMWPERPMVSRVET,< -0.25
20,SGGCLASEGESWWASDGFTS,< -0.25
21,GSRFRGLPRATYGSFICDLA,< -0.25
22,LWIFHACR,< -0.25
23,MQSMRSTTNTK,< -0.25
24,NRQRGPMRVKGGRSSICLPS,< -0.25
25,LGAVRWS,< -0.25
26,TKALMNRRMLI,< -0.25

row,Substance,growth estimate
1,GIKIARTSIRVNLRSRCWQR,-0.235
2,NSTSHRVMAMSPVIPWRRV,< -0.25
3,RCLAVVYN,< -0.25
4,SVWMYTASYGGWTYCNINKW,< -0.25
5,LWAPWQQNIGDASQAPAHTS,< -0.25
6,KGIALRRFTGVCNEQFGAVG,< -0.25
7,IPVQHSVCTIFRRSQVAAGG,< -0.25
8,VDYIYSVPMWSGTFQ,< -0.25
9,NRPQKVGVEE,< -0.25
10,AKRNLFFRSCFYITCLCGTR,< -0.25
11,IKYINALRGE,< -0.25
12,GWEARTPSLARYEDIPCLVL,< -0.25
13,DRRPHNGSGHLRVSE,< -0.25
14,HGSSDTARSARGWLCTLAPC,< -0.25
15,SASVLARVRLLGETVKPVSL,< -0.25
16,FVQHVELSVSLLRLVGPHGT,< -0.25
17,FVHGRRSR,< -0.25
18,LCLIGKAGLRTGMPRD,< -0.25
19,CPFGNSWCRSTASGLSRSER,< -0.25
20,IRRVLERLYFSCSSRSNLQE,-0.208
21,ARVLCPVGGSKSTKRK,< -0.25
22,IHIGPLAAPLGVRGAWWVGH,< -0.25
23,PGFN,< -0.25
24,YAKWRHTCQSSGVCHNLRCQ,< -0.25
25,ATM,< -0.25
26,TKISFNLWP,< -0.25

row,Substance,growth estimate
1,RIRGLKTPGSG,-0.241
2,NCQVGAFLLKGSIGSCSSVA,< -0.25
3,SMFSDMAPDS,< -0.25
4,HRE,< -0.25
5,SCPGPKVCATEYRDRDPFCD,< -0.25
6,TCTKWSEVASVDACQGHIGH,< -0.25
7,TVNKHYFTIRGIA,< -0.25
8,FVDLRRREYSMNSSLIFRRQ,< -0.25
9,HPNGPRMVSCNWLT,< -0.25
10,ISGNLARGLTLLSTAPRVGP,0.0802
11,NSTEPPLPSGVFWHGHAARA,< -0.25
12,PVRIGAGDMGTTSVGHICRY,< -0.25
13,HVQVTFPVPAQWVASLYWRV,-0.245
14,WPKERHD,< -0.25
15,LSGSTGLLT,< -0.25
16,RKYSMPRCGAHGNDSACRPK,< -0.25
17,VGMIPGQDDRRI,< -0.25
18,CSSWLGGTGHRLSLCRVAFG,< -0.25
19,TVYGDRGNVQSRRILLPSFI,-0.245
20,IAVGSVPSPGAESSLGFAWG,< -0.25
21,TAGGESSAWPLLDVIGFCVV,< -0.25
22,VGRATQSTRVATSP,< -0.25
23,LEA,< -0.25
24,NLTCKRQSCSVG,< -0.25
25,FVLTRSIGGRAA,< -0.25
26,VHFQTMYSQKWSWARQK,< -0.25

# Not a retest: entries from further up.
row,Substance,growth estimate
14,WPKERHD,< -0.25
15,LSGSTGLLT,< -0.25

# Later entries:

row,Substance,growth estimate
1,DMFTLVFISSIY,< -0.25
2,LGLLIAQPLTMF,< -0.25
3,TQRGHDPLF,< -0.25
4,QIDVSQRVLGRDRQRTLFCA,< -0.25
5,TSHNPQEWGSI,-0.232
6,QEALEGIWPHAG,< -0.25
7,HGVIGK,< -0.25
8,GGLSWLTKRVAGWPGPISWQ,-0.246
9,YSRVCYSYKTLTRRRASPSA,< -0.25
10,HLLTTRIFTLSSEFRPRQPH,< -0.25
11,DRHILPGERTHWMIWRIPSG,< -0.25
12,WVMQLGESSRSPSV,< -0.25
13,GGRLRSTNALDPGNGLRLER,< -0.25
14,TGGNFGRKPDGLSPRSNDIP,-0.245
15,FPLIMRCVIRKFTITTTIQS,< -0.25
16,TVSPNPTDERTSLLEGKFCS,< -0.25
17,VVYAP,< -0.25
18,GRGPRGRRAAPYVSGSPEAH,< -0.25
19,SNVSSNETHTLYSLIDANS,< -0.25
20,RKSTRSALSRVMFIERVTIG,< -0.25
21,SLASDSDPL,< -0.25

# 5 entries from above, with bars between the fields.
row | Substance | growth estimate
8 | GGLSWLTKRVAGWPGPISWQ | -0.246
11 | DRHILPGERTHWMIWRIPSG | < -0.25
13 | GGRLRSTNALDPGNGLRLER | < -0.25
16 | TVSPNPTDERTSLLEGKFCS | < -0.25
21 | SLASDSDPL | < -0.25
